Mtb cholesterol medium: 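Phenotypic screen: M. tuberculosis growth, cholesterol and DPPC medium, 4 days; the read-out is not stated. Compounds at 50 µM. The record gives no direction; compounds that gave an IC50 in retests scored well above the rest, so higher reads as more growth inhibition. About 69,000 compounds were tested under these conditions; 0.54% (about 370) showed 50% or more at least once.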
Mtb glucose medium: 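Growth of Mycobacterium tuberculosis over 3 days (7H9 medium with glucose and tyloxapol); the read-out is not stated. Compounds at 50 µM. Higher reads as more growth inhibition (inferred: compounds with an IC50 in retests scored well above the rest). Size under these conditions: about 69,000 compounds, about 760 of them at 50% or above in at least one test.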

The filed quantity is “Percent Effect” (%). The controls that fix the scale are not given in the record; negative values are as filed. This is an unselected part of the compounds tested. Two or more numbers in one place are separate tests of the same structure; such repeats can differ widely.

SMILES,Mtb cholesterol medium,Mtb glucose medium
CNc1nc(C2CCCN2C(C)=O)nc2c1CCN(CC1CC1)C2 (stereo unspecified),-2.069%,22.02%
Cc1cc(C(F)(F)F)nc(CNC(=O)CCC2CCCCN2C)n1 (stereo unspecified),-18.43%,-12.51%
Cc1cc(=O)n(CC(=O)NC2CCCCC2)c2ccccc12,-8.705%,-12.65%
CS(=O)(=O)N1CC2(CCN(C(=O)c3csnn3)CC2)c2ccccc21,3.824%,5.679%
O=S(=O)(NC1CCCOC1)c1ccc(C(F)(F)F)nc1 (stereo unspecified),7.851%,21.26%
CC(C)n1ccnc1C1CCCN(c2nc3ccccc3s2)C1 (stereo unspecified),8.27% & 13.09%,12.14%
Cc1nc(C)n(CC2CCCN(Cc3cc(C#N)ccc3F)C2)n1 (stereo unspecified),9.434%,2.708% & 25.28%
Cc1cc(-c2nn(C)c(Cl)c2CN2CCC3(CC2)[C@H](O)C[C@@H]3O)no1,7.184%,10.37%
CCc1nnc(CN2CCN(C(=O)c3ccccn3)CC2)o1,-25.93%,-19%
O=C(NCCC(O)c1ccoc1)Nc1cccs1 (stereo unspecified),26.97%,16.08%
COc1ccc(OC)c(C2CCN(CC(C)(C)N3CCOCC3)C2)c1 (stereo unspecified),2.565%,27%
CC(C)c1nnsc1CNC(=O)C1CCN(C(=O)C2CCCC2)CC1,-21.69%,-13.65%
CS(=O)(=O)c1nccn1Cc1ccc(F)cc1Cl,3.808%,1.254%
COc1ccc(F)cc1C[S+]([O-])CC(=O)NCC(C)C (stereo unspecified),-7.74%,-4.411% & -12.12%
Clc1ccc(C(CNCc2ccncc2)n2cccn2)cc1 (stereo unspecified),-16.45%,-18.69% & 6.263%
CCN1C(=O)CC(c2cnn(C)c2)C12CCN(C(=O)c1ccc[nH]1)CC2 (stereo unspecified),-5.211%,-7.716% & -7.645%
CC(=O)N1CCN(C2CCc3ccccc32)CC1 (stereo unspecified),-7.009%,-6.046%
CCC(C(=O)NCC1CCN(c2cnn(C)c(=O)c2)CC1)n1cccn1 (stereo unspecified),3.015% & -4.715%,10.46%
c1cnc2c(c1)nc1n2[C@@H](CNCc2nccs2)COC1,17.65%,2.438% & 22.85%
COc1ccc(CN2CCC3(CC2)CN(c2ccccn2)CCO3)cc1.O=C(O)C(F)(F)F.O=C(O)C(F)(F)F,-15.13%,7.586% & 7.419%
CCn1cc(NC(=O)C2CCN(Cc3noc(C4CC4)n3)CC2)cn1,0.9302%,20.63%
CNC(=O)[C@@H]1C[C@H](n2cc(-c3ccc(Cl)cc3)nn2)CN1,-27.44%,-20.9% & -3.069%
CCn1cnnc1CNC(=O)NCC(C(C)C)N1CCC(C)CC1 (stereo unspecified),-5.4%,-6.813% & -21.16%
CCOc1ccc(NC(C)C(=O)NCCc2cccs2)cc1CO (stereo unspecified),9.183% & -2.995%,-2.294%
COCCN1CCC(CNC(=O)C2(S(C)(=O)=O)CCCC2)CC1,-12.98%,-18.39%
O=C(O)C(F)(F)F.[H][C@@]12CN(c3ncc(C)cn3)C[C@@]1([H])N(CCN(C)C)C(=O)CO2,-4.508%,-1.756% & -16.42%
O=C(NCCc1cccnc1)N1CCCC1c1ccsc1 (stereo unspecified),7.403%,-6.422%
O=C(NCc1ccoc1)NC1CCN(c2ncccn2)CC1,-1.289%,-2.265%
O=C(O)C(F)(F)F.O=C(O)C(F)(F)F.O=C(O)C(F)(F)F.O=C(O)C(F)(F)F.[H][C@@]12CN(Cc3ccncc3)C[C@]1([H])OCCN2CCN1CCCC1,4.21%,12.66% & -7.157%
CS(=O)(=O)NC1CCN(CCc2ccccc2)CC1,-3.977%,11%
COc1ccc(Br)cc1CCC(=O)N1CCCC(O)C1 (stereo unspecified),-9.258%,1.725%
c1cc(COc2ccc(CNC3CCc4ncnn4C3)cc2)ccn1 (stereo unspecified),-13.09%,-18.55%
[H][C@]12CN(C(=O)OC)CCN1C[C@H](CO)[C@H]2c1ccccc1,-9.261%,-29.31%
COc1ccccc1CN(C)Cc1ccnc(C2CCCO2)n1 (stereo unspecified),11.27% & 1.68%,8.717%
N#Cc1ccc(N2CCCC2Cn2cncn2)nc1 (stereo unspecified),-5.623% & 14.56%,20.03%
CC(C)N1CCCC1c1cc(C(F)(F)F)[nH]n1 (stereo unspecified),7.267% & 1.81%,-34.15%
CN(C)Cc1nnc2n1CCN(Cc1ccccn1)CC2,-11.72%,8.097%
CCN(C(=O)c1ccc2nnc(C3CCN(S(C)(=O)=O)C3)n2c1)C(C)C (stereo unspecified),-4.748%,7.387%
Cc1cc(CN2CCc3nc(N4CCOCC4)nc(O)c3CC2)c(C)s1,9.745%,6.668%
O=C(NCCO)C1(Cc2cc(-c3ccc(F)cc3F)no2)CCOCC1,-2.858%,17.13%
CNC(=O)c1ccccc1NCc1ncnn1C,-6.531%,-15%
CCn1cnnc1CNC(=O)N1CCCN(C(C)=O)CC1,-18%,33.06%
[H][C@@]12OCCN(c3ncccn3)[C@@]1([H])CC[C@H]2OCCN1CCOCC1,12.29%,-16.97% & -3.681%
[H][C@]12CC[C@]([H])(CN(CC(=O)N(C)C)C1)N(C(=O)CCn1cncn1)C2,13.2%,2.024%
CC(C)(C)NC(=O)CNC(=O)CCc1ccccc1Br,-1.638%,3.496% & -4.181%
Cc1c(NC(=O)N(C)CCO)cccc1OC1CCCC1,-9.505%,-16.5%
CN1CCOC(C(=O)N2CCC3(CCCC3)CC2)C1 (stereo unspecified),1.918%,-8.24%
Cc1ncccc1OC1(C(=O)NCCNc2ccccc2)CCNCC1,25.73%,-13.64%
CCCN1CCCn2nc(CNC(=O)CC3CCS(=O)(=O)C3)cc2C1 (stereo unspecified),9.343% & 6.99%,2.354% & -4.047%

The first 4 entries again:

* CNc1nc(C2CCCN2C(C)=O)nc2c1CCN(CC1CC1)C2 (stereo unspecified) | Mtb cholesterol medium: -2.069%; Mtb glucose medium: 22.02%
* Cc1cc(C(F)(F)F)nc(CNC(=O)CCC2CCCCN2C)n1 (stereo unspecified) | Mtb cholesterol medium: -18.43%; Mtb glucose medium: -12.51%
* Cc1cc(=O)n(CC(=O)NC2CCCCC2)c2ccccc12 | Mtb cholesterol medium: -8.705%; Mtb glucose medium: -12.65%
* CS(=O)(=O)N1CC2(CCN(C(=O)c3csnn3)CC2)c2ccccc21 | Mtb cholesterol medium: 3.824%; Mtb glucose medium: 5.679%

From ChEMBL document CHEMBL3988442, “University of Dundee, Small-Polar-MMV Screening Library” (2021).